PubChem BioAssay AID1671195, Yale University | 2021

- Assay: 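Genes whose knockdown alters LDL uptake in liver cancer cells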 (primary screen)
- Cell system: human Huh7 hepatoma cells
- Reagent: siRNA pool against human genes, 18 nM
- Duration: about 2 to 2.5 days of knockdown, then 8 h LDL uptake
- Treatment: DiI-labelled LDL at 30 µg/ml for 8 h, in lipoprotein-deficient serum medium
- Measurement: 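Fluorescent LDL signal imaged in cells, scaled to the plate median, robust z-score for each replicate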
- Scale: robust z-score: higher = more LDL uptake after knockdown
- Rule for the call: 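Active when two or more replicates show a robust z-score above 2 or below -2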
The deposit covers about 22,000 reagents; below is a part drawn at random. About 1,510 of them (6.9%) were called active. 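Active includes knockdowns raising or lowering LDL uptake; positive z-scores mean more uptake, negative mean less.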 Entries without a mark were called inactive.

KDSR — robust z-score, replicate 1 = -1.91; robust z-score, replicate 2 = -1.88; robust z-score, replicate 3 = -1.94
DDX50 — robust z-score, replicate 1 = -0.82; robust z-score, replicate 2 = 0.43; robust z-score, replicate 3 = 0.478
MLPH — robust z-score, replicate 1 = -1.28; robust z-score, replicate 2 = -0.448; robust z-score, replicate 3 = -1.1
WDR44 — robust z-score, replicate 1 = -1.05; robust z-score, replicate 2 = -1.98; robust z-score, replicate 3 = -1.7
GARIN5B — robust z-score, replicate 1 = 1.53; robust z-score, replicate 2 = 1.17; robust z-score, replicate 3 = 1.46
ATP6AP2 — robust z-score, replicate 1 = -0.164; robust z-score, replicate 2 = -0.836; robust z-score, replicate 3 = -0.6
LGALS13 — robust z-score, replicate 1 = 1.09; robust z-score, replicate 2 = -0.112; robust z-score, replicate 3 = 0.44
ZNF784 — robust z-score, replicate 1 = 0.329; robust z-score, replicate 2 = -1.19; robust z-score, replicate 3 = 0.698
ITIH1 — robust z-score, replicate 1 = -0.384; robust z-score, replicate 2 = -0.96; robust z-score, replicate 3 = -0.504
PIWIL2 — robust z-score, replicate 1 = -0.509; robust z-score, replicate 2 = 0.271; robust z-score, replicate 3 = -0.803
THAP4 — robust z-score, replicate 1 = 1.07; robust z-score, replicate 2 = -0.0989; robust z-score, replicate 3 = 0.862
TEX28 — robust z-score, replicate 1 = 0.127; robust z-score, replicate 2 = -0.352; robust z-score, replicate 3 = -0.416
